The values below come from patent US12570690 (NAVIGO PROTEINS, dated 2026).

The target of the assay is Belimumab (IgG1). Put plainly: SPR as in Example 5.

B1: Affinity ligand of SEQ ID NO: 51 (dimeric Ig binding protein) (designed binder)
chain: AQHDKIQQAAFHEILHLPNLTEEQRNKFIQSLRDDPSVSLEILCEAKKLNDAQAPKIAAQHDKIQQAAFHEILHLPNLTEEQRNKFIQSLRDDPSVSLEILAEAKKLNDAQAPK
notes: also called ID51
For the molecule B1, the Kd amounted to 47.4 nM.
